Source: US11033029B2, “Pyrazole amide compound and use thereof” (Shenyang Sinochem Agrochemicals R&D Co., Ltd., priority 2013, dated 2021)
Some results were stated once for a whole list of compounds, not compound by compound.

How the values were obtained:
[1] = test system: corn rust (Puccinia sorghi Schw); assay: Protective effect against corn rust on potted plants; assay type: in vivo; details: 400 ppm, leaf spray, inoculated the second day after treatment
Experimental: Fungicidal activity of the compounds in the present invention against many kinds diseases were carried out. The procedure of fungicidal activity determination is as follows:
The fungicidal activity was tested in vivo manner on the potted plants. The test compounds of the present invention were dissolved in proper solvent (choosing the solvent according their dissolving ability to the compounds, the solvents could be acetone, methanol or N,N-dimethylformide, etc. The volume ratio between solvent and liquid sprayed was equal to or less than 0.05) and dilute with water contain 0.1% Tween 80 to given concentrations. Compounds of present invention was sprayed onto the leaves of seedling according to the designed concentration. Meanwhile, water was set as the blank control, three replicates were set for each treatment, the spore suspension were inoculated on the second day after treatment, then the plants were placed in an artificial climate chamber (temperature: day 25° C., night 20° C., relative humidity 95 to 100%). 24 hours later, the plants were moved to green house to cultivated. The plants which not need to control humidity was inoculated spore suspension in green house and cultivated in green house directly. The results were investigated after the plants were fully infected relative to the blank control (usually one week). The test results grading 100-0 refers to the <A Manual of Assessment Keys for Plant Diseases> which edited by American Phytopathological Society. “100” refer to no infection and “0” refer to the most serious infection
Protective effect against corn rust (Puccinia sorghi Schw):
According the test method described above, parallel test were carried out between compounds 1, 3, 7, 9, 11 and 21 of present invention and the known compounds KC1, KC2, KC3 and KC4.

[2] = test system: cucumber anthracnose (Colletotrichum orbiculare); assay: Protective effect against cucumber anthracnose on potted plants; assay type: in vivo; details: 400 ppm, leaf spray, inoculated the second day after treatment

Row | Compound | protective effect against corn rust [1] [%] | protective effect against cucumber anthracnose [2] [%]
1 | CC(C)Oc1cccc(NC(=O)c2cn(C)nc2C(F)F)c1 [Compound 1] | ≥ 80 | 
2 | CCCC(C)Oc1cccc(NC(=O)c2cn(C)nc2C(F)F)c1 (centres unmarked) [Compound 3] | ≥ 80 | ≥ 80
3 | CCC(CC)Oc1cccc(NC(=O)c2cn(C)nc2C(F)F)c1C [Compound 11] | ≥ 80 | 
4 | C=C(C)Cc1c(NC(=O)c2cn(C)nc2C(F)F)cccc1OC(C)C [Compound 21] | ≥ 80 | 
